Measured values as given in PubChem BioAssay AID540276 (National Center for Advancing Translational Sciences (NCATS), 2011).
“And” between values parts separate entries of the source, which are not always exact repeats. Identical values can stand only once. The campaign covered roughly 300,000 compounds. About 5,400 (1.8%) were called active. The inconclusive results got no clear call from the source; some entries with a clear call stand among them for comparison. Calls come from the whole dose curve; tested in HEK293 cells. Where the call is inconclusive, the potency comes from a doubtful curve fit.

Assay: qHTS for inhibitors of binding or entry into cells for Marburg Virus
Settings: Marburg virus pseudotyped entry inhibition, cell reporter; activity change, negative = inhibition: at 37.8 µM (top of the series) unless noted
% is set by controls: 0 for no effect and ±100 for the full control effect; potency is the fitted concentration of half-maximal effect.

Structure (SMILES)	Potency	activity change, negative = inhibition
O=C(CSc1nnc(CNC(=O)c2cccc(C(F)(F)F)c2)o1)NC1CCCC1	inconclusive: 14.1 µM [activator, partial curve, poor fit]	
COC(=O)C1=C(C)N(Cc2ccccc2)C(=NCC2CC2)NC1c1ccc(Br)cc1 (configuration not stated)		inactive: -10.3% [at 14.2 µM]
CC(=O)Nc1ccc(NC(=O)Cn2c(=O)n(-c3ccc(C)cc3)c(=O)c3oc4ccccc4c32)cc1	inconclusive: 35.5 µM [inhibitor, partial curve, poor fit]	
COc1ccc(NS(=O)(=O)c2ccc(NC(=O)C3CC3)cc2)cc1		inactive: -26%
CC1CCc2sc(C(=O)OCC(=O)NCc3ccc(F)cc3)cc2C1 (configuration not stated)	inconclusive: 1.78 µM [activator, partial curve, poor fit]	
Cn1c(=O)c2c(nc(N/N=C3\CCCc4ccccc43)n2Cc2ccc(F)cc2)n(C)c1=O	inconclusive: 2.82 µM [inhibitor, full curve, poor fit]	
CC(=O)OC[C@H]1O[C@H](C#Cc2ccc(C(C)(C)C)cc2)C=C[C@@H]1OC(C)=O	inconclusive: 0.0067 µM [inhibitor, full curve, poor fit]	
O=C(NNC(=O)c1sccc1-n1cccc1)c1ccccc1	inconclusive: 0.316 µM [activator, partial curve, poor fit]	
Cc1cc(C)nc(Nc2ccc(C(=O)O)cc2)n1		inactive: 2.73%
CNC(=O)c1ccccc1NC(=O)C1CC(=O)N(c2ccc(OC)cc2)C1 (configuration not stated)		inactive: 9.06% [at 46.1 µM]
CCNS(=O)(=O)c1ccc(CCC(=O)N2CCN(c3cccc(Cl)c3)CC2)cc1	inconclusive: 20 µM [inhibitor, single point]	
O=C(Nc1cccc(Cl)c1)Nc1cc(S(=O)(=O)N2CCCCC2)ccc1Cl	active: 3.98 µM	
Cc1oc(C(C)(C)C)cc1C(=O)NC1CCN(Cc2ccccc2)CC1	active: 10 µM	
Cc1ccccc1C(=O)Nc1sc(C)c(C)c1C(=O)c1ccccc1	inconclusive: 29.1 µM [inhibitor, single point]	
COc1ccc(C2C(C(=O)Nc3ccccn3)=C(C)Nc3ncnn32)c(OC)c1 (configuration not stated)		inactive: 2.55%
CC(CCN1CCCCc2nc(C)c(C)cc21)=NO[C@H](C)CN1CCCc2nc(C)c(C)cc21	inconclusive: 0.0335 µM [inhibitor, full curve, poor fit]	
O=C(C(c1ccccc1)c1ccccc1)N1CC[C@@]2(O)CCCC[C@H]2C1	active: 5.62 µM	
Cc1[nH]c2ccccc2c1C(=O)CN1C(=O)NC2(CC(C)CC(C)(C)C2)C1=O (configuration not stated)	inconclusive: 29.1 µM [inhibitor, single point]	
O=C(Nc1cc(C(F)(F)F)ccc1Cl)c1noc2c1CCCCC2	inconclusive: 35.5 µM [activator, single point]	
CCn1c(SCC(=O)Nc2ccccc2)nc2ccccc2c1=O	inconclusive: 0.316 µM [inhibitor, full curve, poor fit]	
CCOC(=O)/C(=N\Nc1ccccc1)P(=O)(c1ccccc1)c1ccccc1	inconclusive: 11.2 µM [inhibitor, partial curve, poor fit]	
O=C(NCc1ccc(F)cc1)c1ccc2c(c1)N(Cc1c(F)cccc1Cl)C(=O)CS2	inconclusive: 7.94 µM [inhibitor, single point]	
O=C(CCNC(=O)c1ccco1)Nc1ccc(Cl)cc1	inconclusive: 11.2 µM [inhibitor, partial curve, poor fit]	

Structure (SMILES)	Potency	activity change, negative = inhibition
Cc1cc(C)c2c(=O)cc(C(=O)Nc3sc4c(c3C#N)CCCC4)oc2c1		inactive: 2.04% [at 46.1 µM]
O=c1[nH]cnc2nc(-c3ccccc3)c(-c3ccccc3)nc12		inactive: 5.02%
CC(/C=N\NC(=O)Cn1cncn1)=C/c1ccc(C(C)C)cc1	inconclusive: 35.5 µM [inhibitor, single point]	
O=C(c1ccco1)N1CCN(S(=O)(=O)c2ccc(Oc3ccccc3)cc2)CC1	inconclusive: 13 µM [inhibitor, partial curve, poor fit]	
COc1cc(NC(=O)c2cccnc2)ccc1NC(=O)c1ccccc1Cl	inconclusive: 8.91 µM [inhibitor, partial curve, poor fit]	
CSc1nnc2c(n1)[nH]c1c(C)cccc12		inactive: 3.41%
S=P1(Oc2ccccc2)Nc2ccccc2N1	inconclusive: 20 µM [activator, single point]	
COc1ccc(C(=O)NNC(=O)c2cccc3ccccc23)cc1	inconclusive: 11.2 µM [activator, partial curve, poor fit]	
CCCN(CC(=O)Nc1ccccc1OC)C(=O)c1cc2ccccc2o1	inconclusive: 0.562 µM [inhibitor, full curve, poor fit]	
COc1ccccc1S(=O)(=O)Cc1ccc(C(=O)NC(C)c2ccc3c(c2)OCCO3)o1 (configuration not stated)	inconclusive: 3.26 µM [inhibitor, partial curve, poor fit]	
O=C(COc1ccc(F)cc1)N1CCc2ccccc2C1		inactive: 20.6%
NS(=O)(=O)c1ccc(N2CCCCCC2)c([N+](=O)[O-])c1	inconclusive: 39.8 µM [inhibitor, partial curve, poor fit]	
COc1cccc(-c2csc(N3CCN(C(=S)Nc4cccc(Cl)c4)CC3)n2)c1	inconclusive: 29.1 µM [inhibitor, single point]	
COc1cc2cc(CN(C(=O)NC3CCCCC3)C3CCCC3)c(=O)[nH]c2cc1OC		inactive: 6.45%
O=C(CNC(=S)N(Cc1ccccc1)Cc1cccnc1)NC1CCCCC1		inactive: -13.2%
CCCn1c(NC(=O)CSCC(=O)Nc2cc(C)on2)nc2ccccc21	inconclusive: 0.631 µM [activator, full curve]	
COc1cccc(C(=O)C2CCCN(Cc3cn[nH]c3C3CCCCC3)C2)c1 (configuration not stated)	inconclusive: 15.8 µM [inhibitor, single point]	
Cc1ccc2sc(-c3ccc(NC(=O)/C=C\C(=O)O)cc3)nc2c1	inconclusive: 22.4 µM [inhibitor, single point]	
COc1ccc(NC(=O)N(C2CCCCC2)C(C)c2cccnc2)c(OC)c1 (configuration not stated)		inactive: -0.241%
Cc1cnc(C(=O)OCC(=O)Nc2cc(Cl)ccc2C#N)cn1		inactive: 13.4%
Cc1ccc(C(C(=O)NC2CCCC2)N(C(=O)Cc2cccs2)c2ccc3c(c2)OCCO3)cc1 (configuration not stated)	inconclusive: 20.6 µM [inhibitor, single point]	
CC1CCc2nc(NC(=O)c3ccc(S(=O)(=O)N4CCCc5ccccc54)cc3)sc2C1 (configuration not stated)	inconclusive: 1.16 µM [inhibitor, full curve]	
CC(C)(C)C1CCc2nc(NC(=O)COc3ccccc3[N+](=O)[O-])sc2C1 (configuration not stated)		inactive: 27.7% [at 46.1 µM]

Structure (SMILES)	Potency	activity change, negative = inhibition
CC(=O)Nc1ccc(C(=O)OCC(=O)Nc2ccc(N3CCOCC3)cc2)cc1	inconclusive: 0.631 µM [inhibitor, full curve]	
Cc1ccc(SCC(=O)NC(=O)NCCC(C)C)c(C)c1	inconclusive: 14.1 µM [inhibitor, partial curve, poor fit]	
CN(C)CCCN(C(=O)c1cc2ccccc2oc1=O)c1nc2ccc(F)cc2s1		inactive: -6.56%
Cc1occc1-c1nnc(SC(C)C(=O)Nc2ccccc2F)o1 (configuration not stated)	inconclusive: 4.47 µM [inhibitor, full curve, poor fit]	
COC(=O)C1=C(C(=O)OC)[C@@H]2N(C)c3ccccc3[C@@]23CCC(=O)N(Cc2ccco2)C3=N1	inconclusive: 0.003 µM [activator, full curve, poor fit]	
CCC(C)(C)C1CCC(=NNc2nc3ccccc3[nH]2)CC1 (configuration not stated)	inconclusive: 10.3 µM [inhibitor, partial curve, poor fit]	
COc1cc(/C=C/c2nc3ccccc3s2)cc(OC)c1O		inactive: 5.99% [at 46.1 µM]
CC1=CCC(C(=O)O)C(C(=O)NC2CCCCC2)C1 (configuration not stated)		inactive: -25.1% [at 46.1 µM]
COCc1nnc(NC(=O)C2CC(=O)N(CCc3ccc(F)cc3)C2)s1 (configuration not stated)		inactive: -4.08% [at 46.1 µM]
COc1ccc(C(=O)N2CCCN(C)CC2)cc1S(=O)(=O)N1CCCc2ccccc21	inconclusive: 29.1 µM [inhibitor, single point]	
O=C(NCC(c1cccs1)N1CCOCC1)c1cnc(Cl)c(Cl)c1 (configuration not stated)	inconclusive: 1 µM [inhibitor, full curve, poor fit]	
O=C(Nc1ccc(Cl)cc1)N1CCC(CO)(Cc2ccccc2)CC1	inconclusive: 12.6 µM [inhibitor, partial curve, poor fit]	
O=C(Cc1cccs1)N/N=C/C=C/c1ccccc1		inactive: 20.3%
O=C1OCC(c2ccc(Cl)s2)=C1c1ccccc1[N+](=O)[O-]	inconclusive: 15.8 µM [inhibitor, single point]	
O=C(Nc1cccc(C(F)(F)F)c1)c1cc(-c2ccc(Cl)cc2)on1		inactive: -1.46% [at 46.1 µM]
O=C(NC(=S)NCCc1ccccc1)c1ccccc1	inconclusive: 0.73 µM [activator, partial curve, poor fit]	
O=C(c1ccccc1)c1ccc(OCC(O)CNC2CCCc3ccccc32)cc1 (configuration not stated)	inconclusive: 5.62 µM [inhibitor, single point]	
COc1ccccc1N1CCN(C(=S)Nc2cccc(C)c2)CC1	inconclusive: 20 µM [inhibitor, partial curve, poor fit]	
CC(=O)/C=C1\N(C)c2ccc(C)cc2C1(C)C		inactive: 1.41% [at 46.1 µM]
Cc1cnc(C(=O)NCCc2ccc(S(=O)(=O)NC(=O)NC3CCCCC3)cc2)cn1	inactive and inconclusive: 29.1 µM [inhibitor, single point]	
O=S(=O)(c1cccc(NC(=S)N2CCN(c3cccc(Cl)c3)CC2)c1)C(F)F	inconclusive: 22.4 µM [inhibitor, partial curve, poor fit]	
